Measured values reported in PubChem BioAssay AID504834 (National Center for Advancing Translational Sciences (NCATS), 2011).
Screen size: about 320,000 compounds; about 22,000 (6.9%) were called active. The shares of active, inactive and inconclusive entries below differ from those in the screen. The call rests on the fitted dose curve; in most records, active means well fitted inhibition curve with a large enough effect; inconclusive means small, poorly fitted or top-dose-only effect, or another doubt; inactive means no such curve, though single readings can be large or run the other way. Potencies of inconclusive entries are doubtful fits and often do not repeat.

Experiment: Primary qHTS for delayed death inhibitors of the malarial parasite plastid, 96 hour incubation
Conditions: P. falciparum luciferase reporter growth; series mostly up to 28.7 µM
In short: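 P. falciparum expressing integrated firefly luciferase, in erythrocytes at 2% hematocrit, 0.05% parasitemia, incubated with compounds 96 h at 37 C, 5% CO2. Growth inhibition read as loss of luminescence; two-generation exposure targets delayed-death apicoplast inhibitors.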
On the % scale 0 is the no-effect control and ±100 the full control effect; potency means the concentration at half of the fitted maximal effect.

| Structure (SMILES) | Potency | activity change, negative = inhibition |
| --- | --- | --- |
| C/C(=C\c1ccccc1)CN1CCN(C(C)C)C(CCO)C1 (stereo not given) | inconclusive: 9.28 µM [inhibitor, single point] | – |
| CCOC(=O)C1C(=O)C=C(N2CCOCC2)CC1c1cccc(OC)c1 (stereo not given) | inconclusive: 0.0026 µM [inhibitor, full curve, poor fit] | – |
| Cc1csc(N(C(=O)c2cccc(S(=O)(=O)N3CCCC3)c2)c2ccccc2)n1 | inconclusive: 16.5 µM [inhibitor, partial curve, poor fit] | – |
| Clc1cccc(Cl)c1COc1ccccc1CNn1cnnc1 | inactive | – |
| O=C(NN=C1CCCC1)c1ccc([N+](=O)[O-])cc1 | inactive | – |
| O=C(Cc1ccccc1)N1CCN=C1SCc1ccc([N+](=O)[O-])cc1 | inconclusive: 18.5 µM [inhibitor, single point] | – |
| Cn1nc([N+](=O)[O-])nc1Sc1nnnn1-c1ccc(C(=O)O)cc1 | inactive | – |
| O=C(CSc1nc2ccccc2nc1N1CCCC1)Nc1ccc(Cl)cc1 | inactive | – |
| CCC1CCc2sc(C(=O)NCC(c3ccc(OC)cc3)N3CCOCC3)cc2C1 (stereo not given) | inconclusive: 14.7 µM [inhibitor, partial curve, poor fit] | – |
| CCCc1nnc(NC(=O)NCCN2C(=O)C3C4C=CC(C4)C3C2=O)s1 (stereo not given) | inactive | – |
| CN(Cc1nc(C(c2ccccc2)c2ccccc2)no1)CC1COCCO1 (stereo not given) | inconclusive: 9.28 µM [inhibitor, partial curve] | – |
| Cc1ccc(S(=O)(=O)Nc2ccccc2C(=O)OC(C)C(=O)Nc2ccc3ccccc3c2)cc1[N+](=O)[O-] (stereo not given) | inconclusive: 10.4 µM [inhibitor, single point] | – |
| CCCOc1ccc(CSC2=NCCN2)cc1[N+](=O)[O-] | inconclusive: 0.165 µM [inhibitor, full curve, poor fit] | – |
| COc1cccc(Cn2c(NCc3ccco3)nc3c2c(=O)n(C)c(=O)n3C)c1 | – | inactive: 7.11% [at 5.75 µM] |
| O=C(NCCn1ccc2ccccc21)c1ccc(S(=O)(=O)N2CCOCC2)cc1 | inconclusive: 10.4 µM [inhibitor, partial curve, poor fit] | – |
| O=C(NCc1cccs1)C(=O)c1cn(CC(=O)N2CCOCC2)c2ccccc12 | inactive | – |
| Cc1ccc(N2C(=O)c3ccc(C(=O)O)cc3C2=O)cc1C | inconclusive: 3.29 µM [inhibitor, partial curve] | – |
| O=C(OCc1cc2ccccc2[nH]c1=O)C1CCCO1 (stereo not given) | inconclusive: 16.5 µM [inhibitor, single point] | – |
| Cn1nc(C(F)(F)F)c(-c2ccc(Br)cc2)c1NC(=O)c1cccnc1 | inconclusive: 18.5 µM [inhibitor, single point] | – |
| Cc1c(C(=O)N2CCN(c3ccccc3)CC2)oc2c(Cl)cccc12 | inconclusive: 2.08 µM [inhibitor, partial curve, poor fit] | – |
| COc1ccccc1/C=C/C(=O)NCC(=O)N/N=C/c1ccc2c(c1)OCO2 | inactive | – |
| CCCOc1ccc(C2NC(=S)NC(C)=C2C(=O)c2ccccc2)cc1OC (stereo not given) | inconclusive: 18.5 µM [inhibitor, single point] | – |
| Cc1onc(-c2c(F)cccc2Cl)c1C(=O)N[C@@H]1C(=O)N2C(C(=O)O)C(C)(C)S[C@H]12 (stereo not given in full) | inactive | – |
| COc1ccc(C(=O)Nc2ccc3ccccc3c2)c(OC)c1 | inconclusive: 10.4 µM [inhibitor, partial curve, poor fit] | – |

Ordered by heavy-atom count (falling): part of the list above

| Structure (SMILES) | Potency | activity change, negative = inhibition |
| --- | --- | --- |
| Cc1onc(-c2c(F)cccc2Cl)c1C(=O)N[C@@H]1C(=O)N2C(C(=O)O)C(C)(C)S[C@H]12 (stereo not given in full) | inactive | – |
| O=C(NCCn1ccc2ccccc21)c1ccc(S(=O)(=O)N2CCOCC2)cc1 | inconclusive: 10.4 µM [inhibitor, partial curve, poor fit] | – |
| Cn1nc(C(F)(F)F)c(-c2ccc(Br)cc2)c1NC(=O)c1cccnc1 | inconclusive: 18.5 µM [inhibitor, single point] | – |
| CCCOc1ccc(CSC2=NCCN2)cc1[N+](=O)[O-] | inconclusive: 0.165 µM [inhibitor, full curve, poor fit] | – |

Next part.

| Structure (SMILES) | Potency | activity change, negative = inhibition |
| --- | --- | --- |
| CCOc1ccc(-c2ccc(SCC(=O)Nc3nnc(CC)s3)nn2)cc1 | inconclusive: 4.15 µM [inhibitor, single point] | – |
| COC(=O)c1ccc(COC(=O)C2CCN(S(=O)(=O)c3ccc(C)c(C)c3)CC2)o1 | inactive | – |
| COc1ccc(C(=O)Nn2c(C)nc3ccccc3c2=O)cc1Br | inactive | – |
| COC(=O)CCSc1cc(NCCOC(C)=O)c([N+](=O)[O-])c2nonc12 | inactive | – |
| Oc1ccc(-c2c(-c3ccsc3)sc3ccccc23)cc1 | inconclusive: 18.5 µM [inhibitor, single point] | – |
| O=C(COc1ccccc1)N1N=C(c2cccnc2)CC1(O)C(F)(F)F (stereo not given) | active: 0.928 µM | – |
| COC(=O)C1Sc2[nH]c(=O)sc2C2c3ccccc3OC(=O)C12 (stereo not given) | inconclusive: 18.5 µM [inhibitor, single point] | – |
| COc1cccc(N2C(=O)CN(Cc3ccc(OC)c(OC)c3)C2=S)c1 | inconclusive: 2.33 µM [inhibitor, full curve] | – |
| CC(C)(C)c1ccc(-n2ncc3c2CCCC3NC(=O)c2cnccn2)cc1 (stereo not given) | inconclusive: 0.0657 µM [inhibitor, full curve, poor fit] | – |
| CCn1c(C(=O)O)c(S(=O)(=O)c2ccc(Cl)cc2)c2ccccc21 | inconclusive: 1.17 µM [inhibitor, full curve] | – |
| CN(Cc1ccccc1)c1nc2c(c(=O)[nH]c(=O)n2C)n1Cc1ccccc1Cl | inconclusive: 0.738 µM [inhibitor, full curve, poor fit] | – |
| O=C1N=c2ccccc2=C1c1sc(=S)n(NC(=O)c2cccc(O)c2)c1O | active: 1.85 µM | – |
| O=C(c1ccc(Cn2c(=S)[nH]c3ccccc3c2=O)cc1)N1CCN(c2ccccn2)CC1 | inconclusive: 10.4 µM [inhibitor, single point] | – |
| COc1cc(N2C(=O)CC(=O)NC2=O)cc(OC)c1OC | inconclusive: 9.28 µM [inhibitor, single point] | – |
| O=C(CN1CCN(c2cccc(Cl)c2)CC1)NC1CCCc2ccccc21 (stereo not given) | inactive | – |
| O=C(COc1ccc2c(-c3ccccc3)cc(=O)oc2c1)N[C@H](Cc1c[nH]c2ccccc12)C(=O)O | inactive | – |
| CCS(=O)(=O)N1CCC(C(=O)NCCCN2CCCCCC2)CC1 | inconclusive: 11.7 µM [inhibitor, single point] | – |
| CCOCc1cnc(C)nc1NCC(=O)c1c(C)[nH]c2ccc(OC)cc12 | active: 0.415 µM | – |
| COc1ccc2sc(N(CCN(C)C)C(=O)c3cc(Cl)sc3Cl)nc2c1 | inactive | – |
| O=C(/C=C\c1ccccc1)NCC(=O)N/N=C/c1ccc(O)cc1O | inconclusive: 13.1 µM [inhibitor, partial curve] | – |
| COc1ccccc1CNC(=O)CSc1ccsc1[N+](=O)[O-] | inactive | – |
| Cc1ccccc1Cn1c(C(=O)OC(C)C)cc2c1ccn2C | inconclusive: 10.4 µM [inhibitor, single point] | – |
| CCN(CC)S(=O)(=O)c1cccc(-c2nnc(SC(C)C(N)=O)n2CCc2ccccc2)c1 (stereo not given) | inconclusive: 5.22 µM [inhibitor, partial curve, poor fit] | – |
| COc1ccc(C(=O)CSc2n[nH]c(-c3ccco3)n2)cc1 | active: 1.17 µM | – |

| Structure (SMILES) | Potency | activity change, negative = inhibition |
| --- | --- | --- |
| CC(=O)Oc1cccc(N2C(=O)CC(Nc3ccc(N4CCOCC4)cc3)C2=O)c1 (stereo not given) | inconclusive: 10.4 µM [inhibitor, single point] | – |
| C#CCOCCOCCOCCNc1nc(N2CCN(C(=O)C(Cc3ccc(O)cc3)n3cc(C(N)C(C)CC)nn3)CC2)nc(N2CCN(C(=O)C(Cc3ccc(O)cc3)n3cc(C(N)C(C)CC)nn3)CC2)n1 (stereo not given) | active: 9.28 µM | – |
| Cc1ccc(C)c(N(C(=O)Cn2nnc3ccccc32)C(C(=O)NCc2ccco2)c2ccncc2)c1 (stereo not given) | inconclusive: 0.262 µM [inhibitor, full curve, poor fit] | – |
| Cc1ccc(CS(=O)(=O)CCC(=O)NCCCN2CCCC2)cc1 | inconclusive: 0.0029 µM [inhibitor, full curve, poor fit] | – |
| N#Cc1cccc(S(=O)(=O)N2CCN(c3ccnc4cc(Cl)ccc34)CC2)c1 | active: 2.33 µM | – |
| Cc1c(F)cccc1NC(=O)CCC(=O)O | inconclusive: 10.4 µM [inhibitor, partial curve] | – |
| CC(NC(=O)c1ccccc1F)c1cccc2ccccc12 (stereo not given) | inactive | – |
| O=C(Nc1nnc(SCc2ccccc2Cl)s1)c1cccc([N+](=O)[O-])c1 | inconclusive: 18.5 µM [inhibitor, single point] | – |
| COc1ccc(S(=O)(=O)N(CC(=O)N/N=C/c2ccccc2C(=O)O)c2ccccc2OC)cc1 | inconclusive: 0.415 µM [inhibitor, full curve, poor fit] | – |
| CCc1cccc(C)c1NS(=O)(=O)c1cc(Br)cnc1N | inactive | – |
| C/C=C/c1ccc(OCC(O)CN(C)Cc2ccc(SC)cc2)c(OC)c1 (stereo not given) | inconclusive: 9.28 µM [inhibitor, partial curve] | – |
| c1ccc(C(c2ccccc2)N2CCN(c3ccc4ccccc4n3)CC2)cc1 | – | inactive: 1.96% [at 5.75 µM] |
| COc1ccc(-c2cc(C3CCN(C(=O)OC(C)(C)C)CC3)[nH]n2)cc1 | inconclusive: 10.4 µM [inhibitor, single point] | – |
| C=CCc1cc(/C=C2/NC(=O)N(CC)C2=O)cc(OCC)c1OCc1ccc(C(=O)O)cc1 | inconclusive: 18.5 µM [inhibitor, single point] | – |
| CC1(C)Cc2ccccc2C(/C(C#N)=N/O)=N1 | inconclusive: 13.1 µM [inhibitor, single point] | – |
| CC1(C)CC(=O)C(C=Nc2ccccc2)=C(O)C1 | inactive | – |
| CCc1ccc(C)c(OC(=O)c2cncc(Br)c2)c1 | inactive | – |
| O=C(NCc1ccco1)Nc1ccc(Br)cc1Cl | inactive | – |
| Cc1nn(C)c(C)c1C(C)NC(=O)c1cc(COc2ccc(F)c(F)c2)on1 (stereo not given) | inactive | – |
| C/C(=N\NC(=O)c1nnn(-c2nonc2N)c1C)c1ccc(-c2ccccc2)cc1 | inconclusive: 18.5 µM [inhibitor, single point] | – |
| Cc1cc(N2CCCC(C(=O)Nc3cccc(Cl)c3)C2)n2ncnc2n1 (stereo not given) | active: 14.7 µM | – |
| COc1ccc2[nH]c(=O)c(CN(Cc3cccnc3)C(=O)Nc3ccccc3)cc2c1 | inconclusive: 11.7 µM [inhibitor, partial curve, poor fit] | – |
